Test results from US20110207139.
A negative result means that nothing was seen under these conditions. For part of these data: Protein sequences can lack the tags named with them. For part of these data: Construct, isoform or probe ends are uncertain for at least one entry.

Tests used:
Assay in all cases: enzyme reaction in vitro
[1] = tested on: T1, SgeI (methylation-specific REase), recombinant (Streptomyces griseoflavus RFL11); settings: purified recombinant protein
T1 sequence: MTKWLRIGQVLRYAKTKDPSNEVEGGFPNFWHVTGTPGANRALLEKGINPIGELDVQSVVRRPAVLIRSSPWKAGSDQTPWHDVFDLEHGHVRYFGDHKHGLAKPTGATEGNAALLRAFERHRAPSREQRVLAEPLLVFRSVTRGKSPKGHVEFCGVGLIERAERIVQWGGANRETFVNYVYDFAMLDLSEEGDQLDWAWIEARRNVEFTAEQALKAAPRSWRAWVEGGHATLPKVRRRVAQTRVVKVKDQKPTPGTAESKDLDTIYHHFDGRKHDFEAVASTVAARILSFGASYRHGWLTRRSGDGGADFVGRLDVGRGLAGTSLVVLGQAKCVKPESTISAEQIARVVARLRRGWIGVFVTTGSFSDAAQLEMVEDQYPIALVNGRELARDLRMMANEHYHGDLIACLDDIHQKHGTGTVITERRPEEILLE

[2] = tested on: SguI (methylation-specific REase), partially purified (Streptomyces griseus RFL12); settings: purified native protein
[3] = tested on: REase from isolate Sa27-m20, partially purified (bacterial isolate Sa27-m20); settings: purified native protein
[4] = 10 mM MgCl2, 37 C 16 h, label: 5'-33P

In the case of “ACTTCACGCCAGAATACGAAAGACCAGGTATATGCACAAAATGAGATGCTT (double strand) [MZ-96/MZ-97 hemimethylated, m5C in top strand]”, the “activity on this sequence” value ([1]; 5mC at second C of CCWGG, top strand, cuts 12/16 nt from m5C with alternative 1-nt shifted cut in 5'-D and 3'-D, 5'-D incomplete, label: 5'-33P or 3'-32P cordycepin) is reported as “active”, the “activity on this sequence” value ([2]; 5mC at second C of CCWGG, top strand, only small fraction cleaved in 16 h, 12/16 nt from m5C, 10 mM MgCl2, label: 5'-33P or 3'-32P cordycepin) is reported as “active” and the “activity on this sequence” value ([3]; 5mC at second C of CCWGG, top strand, only small fraction cleaved in 16 h, 12/16 nt from m5C, label: 5'-33P or 3'-32P cordycepin) is reported as “active”.
“ACTTCACGCCAGAATACGAAAGACCAGGTATATGCACAAAATGAGATGCTT (double strand) [MZ-95/MZ-97 unmethylated oligoduplex (5'-0)]” was tested, and the “activity on this sequence” value ([1]; 5 mM MgCl2, 100 mM KCl, pH 8.0, 37 C 60 min, label: 5'-33P) was “not active”, the “activity on this sequence” value [2, 4] was “not active” and the “activity on this sequence” value [3, 4] was “not active”.
“ACTTCACGCCAGAATACGAAAGACCAGGTATATGCACAAAATGAGATGCTT (double strand) [MZ-95/MZ-98 hemimethylated, m5C in bottom strand]” was tested, and the “activity on this sequence” value ([1]; 5mC at second C of CCWGG, bottom strand, nearly complete, cuts 12/16 nt from m5C, 5 mM MgCl2, 37 C 60 min, label: 5'-33P or 3'-32P cordycepin) was “active”, the “activity on this sequence” value ([2]; 5mC at second C of CCWGG, bottom strand, only small fraction cleaved in 16 h, 12/16 nt from m5C, 10 mM MgCl2, label: 5'-33P or 3'-32P cordycepin) was “active” and the “activity on this sequence” value ([3]; 5mC at second C of CCWGG, bottom strand, only small fraction cleaved in 16 h, 12/16 nt from m5C, label: 5'-33P or 3'-32P cordycepin) was “active”.
